Results deposited as PubChem BioAssay AID743121 (NCATS, 2013)
Screen: 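Partners whose loss is lethal together with topoisomerase I blockade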 (primary screen). Cells: MDA-MB-231 cells, a human breast cancer line. Reagent: single siRNA against human genes, 20 nM siRNA (0.8 pmol per well). Duration: 120 h (drug added 48 h after transfection, read 72 h later). Treatment: camptothecin 20 nM (about EC30) for 72 h; vehicle 0.1% DMSO in parallel plates. Read-out: 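CellTiter-Glo ATP signal, scaled to control siRNA as percent viability; sensitisation given as log2 of untreated divided by camptothecin-treated viability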. Reading the numbers: log2 vehicle/camptothecin viability: higher = stronger sensitisation to camptothecin. Rule for the call: 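Active genes have an RSA gene-level p-value below 0.001, computed from the ratios of their separate siRNAs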.
Here is one part, drawn at random, of about 26,000 reagents tested. 167 of all reagents (0.63%) were called active. 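Calls are per gene from RSA p-values that are not deposited; an individual active-marked siRNA can sensitise only weakly.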 Reagents against one gene are numbered here. Further read-outs or replicates are left out here.

SOX9 (GeneID 6662) #1 — log2 vehicle/camptothecin viability = 0.206; Call = inactive
SOX9 (GeneID 6662) #2 — log2 vehicle/camptothecin viability = -0.0499; Call = inactive
SOX9 (GeneID 6662) #3 — log2 vehicle/camptothecin viability = -0.548; Call = inactive
TWF2 (GeneID 11344) #1 — log2 vehicle/camptothecin viability = -0.0938; Call = inactive
TWF2 (GeneID 11344) #2 — log2 vehicle/camptothecin viability = -0.599; Call = inactive
TWF2 (GeneID 11344) #3 — log2 vehicle/camptothecin viability = -1; Call = inactive
TWF2 (GeneID 11344) #4 — log2 vehicle/camptothecin viability = 0.131; Call = inactive
AKAP3 (GeneID 10566) #1 — log2 vehicle/camptothecin viability = -0.23; Call = inactive
AKAP3 (GeneID 10566) #2 — log2 vehicle/camptothecin viability = -0.2; Call = inactive
AKAP3 (GeneID 10566) #3 — log2 vehicle/camptothecin viability = -0.406; Call = inactive
AKAP3 (GeneID 10566) #4 — log2 vehicle/camptothecin viability = 0.725; Call = inactive
GNRHR2 (GeneID 114814) #1 — log2 vehicle/camptothecin viability = -0.388; Call = inactive
GNRHR2 (GeneID 114814) #2 — log2 vehicle/camptothecin viability = 0.38; Call = inactive
GNRHR2 (GeneID 114814) #3 — log2 vehicle/camptothecin viability = -0.206; Call = inactive
GNRHR2 (GeneID 114814) #4 — log2 vehicle/camptothecin viability = -0.0387; Call = inactive
CELSR1 (GeneID 9620) #1 — log2 vehicle/camptothecin viability = -0.064; Call = inactive
CELSR1 (GeneID 9620) #2 — log2 vehicle/camptothecin viability = -0.255; Call = inactive
CELSR1 (GeneID 9620) #3 — log2 vehicle/camptothecin viability = -0.329; Call = inactive
CELSR1 (GeneID 9620) #4 — log2 vehicle/camptothecin viability = -0.441; Call = inactive
ABI3BP (GeneID 25890) #1 — log2 vehicle/camptothecin viability = -0.0014; Call = inactive
ABI3BP (GeneID 25890) #2 — log2 vehicle/camptothecin viability = 0.311; Call = inactive
ABI3BP (GeneID 25890) #3 — log2 vehicle/camptothecin viability = -0.703; Call = inactive
ABI3BP (GeneID 25890) #4 — log2 vehicle/camptothecin viability = -0.0617; Call = inactive
NHERF2 (GeneID 9351) #1 — log2 vehicle/camptothecin viability = -0.246; Call = inactive
NHERF2 (GeneID 9351) #2 — log2 vehicle/camptothecin viability = 0.498; Call = inactive
NHERF2 (GeneID 9351) #3 — log2 vehicle/camptothecin viability = 0.0442; Call = inactive
NHERF2 (GeneID 9351) #4 — log2 vehicle/camptothecin viability = -0.923; Call = inactive
REELD1 (GeneID 345051) #1 — log2 vehicle/camptothecin viability = -0.0441; Call = inactive
REELD1 (GeneID 345051) #2 — log2 vehicle/camptothecin viability = -0.044; Call = inactive
REELD1 (GeneID 345051) #3 — log2 vehicle/camptothecin viability = 0.055; Call = inactive
REELD1 (GeneID 345051) #4 — log2 vehicle/camptothecin viability = -0.218; Call = inactive
TRIM5 (GeneID 85363) #1 — log2 vehicle/camptothecin viability = -0.535; Call = inactive
TRIM5 (GeneID 85363) #2 — log2 vehicle/camptothecin viability = -0.277; Call = inactive
TRIM5 (GeneID 85363) #3 — log2 vehicle/camptothecin viability = -0.00947; Call = inactive
UIMC1 (GeneID 51720) #1 — log2 vehicle/camptothecin viability = -0.245; Call = inactive
UIMC1 (GeneID 51720) #2 — log2 vehicle/camptothecin viability = -0.324; Call = inactive
UIMC1 (GeneID 51720) #3 — log2 vehicle/camptothecin viability = -0.182; Call = inactive
